Test results published in patent publication US20170267679A1, “[…] FUSED PYRIMIDINE COMPOUNDS AS INHIBITORS OF p97 COMPLEX” (Cleave Biosciences, Inc., priority 2016, published 2017).

Test system: Caco-2 cell monolayer
Settings: pH 7.4, range over 12 inter-day experiments

For `CC(C)NCC(O)COc1ccc(CC(N)=O)cc1` (centres unmarked) [Atenolol], the “Peff in pH 7.4 Caco-2, A B, Range” value (A to B) was 0.69-1.80 x E−6 cm/sec and the “Peff in pH 7.4 Caco-2, B A, Range” value (B to A) was 1.69-2.68 x E−6 cm/sec.
